Results published in patent publication US8865679B2 (priority 2001, dated 2014).
Some of these results come from one statement about several compounds together.

Assay type: physicochemical
Settings: at 25° C.

## poly-(1,6)-β-D-glucopyranosyl (1,3)β-D-glucopyranose [PGG]
  stable (storage time): at least 2 years
